Results reported in patent US9447023B2, “Curcumin and tetrahydrocurcumin derivatives” (Research Foundation of the City University of New York, priority 2006, dated 2016).
For at least one compound, name, drawing or mass did not settle the structure.

Protein sequences, listed by entry. Tags and fused reporters are not part of them. Residues count along the entry.
UniProt P05067, 672-711 limits assumed: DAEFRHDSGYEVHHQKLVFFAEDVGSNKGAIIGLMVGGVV

Key:
[1] = Molar extinction coefficient of curcumin analogs (UV-visible); format: physicochemical; details: in M-1 cm-1 (unit assumed)
Text: Each curcumin derivative is bioconjugated to create a biopolymer that can be used as an eco-friendly dye. For example, compounds 1b and 1d can be conveniently conjugated to the lysine residues of proteins, the azide and the alkyne derivatives can be attached to proteins via the ‘click’ bioconjugation reaction. Compounds 1c and 1e have the advantage that unlike most reactive groups which are used for bioconjugation, alkyne and azide groups are stable in aqueous media (Scheme 5). The absorbance and fluorescence properties of these dyes are similar to the parent molecule.
Reagent-grade solvents such as acetone and tetrahydrofuran were used without further purification. For High Performance Liquid Chromatography (HPLC), methylene chloride was used with Pure Solv™ solvent purification system. Curcumin was obtained from Acros-Organics. Copper acetate and sodium ascorbate were purchased from Sigma. Silica gel 60 F 254 plates for thin-layer chromatography (TLC) were purchased from Merck. Column chromatographic separations were carried out using silica gel (Fisher) with a particle size of 0.040-0.063 mm. Nuclear magnetic resonance (NMR) was recorded on Bruker Avance 600 (600 MHz) spectrometers. Mass spectra (ES-MS) were recorded on a LC/MS and Time Of Flight (TOF) mass spectrometer. U.V.-Visible spectra were recorded using a ChemStation Rev. A.10.01 from Agilent Technologies

[2] = molecular target: amyloidβ peptide Aβ-40 (Homo sapiens, UniProt P05067); test: Dissolution of preformed Aβ-40 amyloid plaque (fibrils), UV spectrum and TEM; format: biochemical; details: 8 μM, 50 μG/mL Aβ-40, three more days at 37° C.

## COc1cc(/C=C\C(=O)CC(=O)/C=C\c2ccc(OC(=O)CCCC(=O)O)c(OC)c2)ccc1O [Compound 3, Mono-Carbonyl Butanoic Acid]
[1]
  Molar Extinction Coeffecient: 57022
[2]
  UV absorbance of treated amyloid relative to control: reduced absorbance relative to the control samples
  fibrils in treated plaque samples by transmission electron microscopy: completely absent
